Results published in the supplement of paper PMC12819154, “High-throughput peptide-centric local stability assay extends protein–ligand identification to membrane proteins, tissues and bacteria” (Nature Structural & Molecular Biology, 2025).
The list shows a part of the results. Most entries show no effect beyond the scatter of the controls.

Protein sequences, listed by entry. Tags and fused reporters are not part of them. Lines headed by an entry give the natural chain unless they say otherwise; changes in a name come on top.
UniProt P03813: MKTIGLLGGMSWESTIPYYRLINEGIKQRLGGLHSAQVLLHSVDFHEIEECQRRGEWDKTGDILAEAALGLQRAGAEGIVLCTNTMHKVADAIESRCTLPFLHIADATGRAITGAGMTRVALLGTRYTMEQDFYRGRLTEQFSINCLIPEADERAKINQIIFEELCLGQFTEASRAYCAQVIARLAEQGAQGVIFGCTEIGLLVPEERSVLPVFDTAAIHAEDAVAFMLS
UniProt P00894: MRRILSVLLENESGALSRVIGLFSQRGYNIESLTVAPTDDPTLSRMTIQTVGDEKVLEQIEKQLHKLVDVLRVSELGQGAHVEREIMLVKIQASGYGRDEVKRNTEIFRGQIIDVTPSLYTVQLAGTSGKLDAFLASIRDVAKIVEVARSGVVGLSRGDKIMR
UniProt P00805: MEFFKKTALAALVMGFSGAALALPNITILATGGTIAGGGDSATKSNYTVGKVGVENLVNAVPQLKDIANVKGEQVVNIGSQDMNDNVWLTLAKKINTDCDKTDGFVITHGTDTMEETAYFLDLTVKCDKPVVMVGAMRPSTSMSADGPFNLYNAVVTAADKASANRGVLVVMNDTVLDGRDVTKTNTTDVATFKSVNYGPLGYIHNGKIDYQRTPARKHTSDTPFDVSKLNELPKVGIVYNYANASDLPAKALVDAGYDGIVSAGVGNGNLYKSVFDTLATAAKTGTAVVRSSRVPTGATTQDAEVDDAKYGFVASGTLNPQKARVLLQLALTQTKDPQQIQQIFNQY
UniProt P06999: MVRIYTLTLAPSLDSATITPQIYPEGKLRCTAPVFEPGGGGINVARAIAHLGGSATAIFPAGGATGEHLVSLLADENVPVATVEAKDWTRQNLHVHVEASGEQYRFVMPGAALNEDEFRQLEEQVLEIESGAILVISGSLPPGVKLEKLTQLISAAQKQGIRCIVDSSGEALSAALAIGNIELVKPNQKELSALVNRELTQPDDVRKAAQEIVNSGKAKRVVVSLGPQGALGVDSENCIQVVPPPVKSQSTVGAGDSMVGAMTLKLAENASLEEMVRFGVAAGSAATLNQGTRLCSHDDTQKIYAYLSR
UniProt P00760: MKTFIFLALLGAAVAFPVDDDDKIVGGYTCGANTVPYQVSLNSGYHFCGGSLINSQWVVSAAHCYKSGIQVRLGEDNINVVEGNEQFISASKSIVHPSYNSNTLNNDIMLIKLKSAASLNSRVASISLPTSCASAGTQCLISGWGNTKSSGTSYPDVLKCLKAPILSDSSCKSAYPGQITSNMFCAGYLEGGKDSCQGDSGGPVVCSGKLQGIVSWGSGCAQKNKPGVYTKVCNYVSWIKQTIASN
UniProt P06129: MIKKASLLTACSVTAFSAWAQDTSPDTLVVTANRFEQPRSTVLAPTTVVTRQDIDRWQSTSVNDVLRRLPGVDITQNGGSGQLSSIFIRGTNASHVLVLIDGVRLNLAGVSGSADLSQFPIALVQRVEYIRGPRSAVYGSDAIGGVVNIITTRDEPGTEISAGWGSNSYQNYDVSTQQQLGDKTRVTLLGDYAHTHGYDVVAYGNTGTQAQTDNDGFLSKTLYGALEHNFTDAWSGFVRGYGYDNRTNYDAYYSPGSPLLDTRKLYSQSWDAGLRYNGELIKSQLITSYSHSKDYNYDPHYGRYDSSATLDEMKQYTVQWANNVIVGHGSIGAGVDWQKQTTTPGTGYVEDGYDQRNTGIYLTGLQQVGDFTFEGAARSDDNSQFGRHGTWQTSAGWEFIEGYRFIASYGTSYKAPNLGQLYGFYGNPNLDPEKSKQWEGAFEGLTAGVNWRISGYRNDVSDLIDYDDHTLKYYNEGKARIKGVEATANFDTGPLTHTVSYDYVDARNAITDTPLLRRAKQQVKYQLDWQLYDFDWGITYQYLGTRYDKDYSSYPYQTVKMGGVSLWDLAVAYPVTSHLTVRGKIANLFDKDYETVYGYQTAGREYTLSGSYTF
UniProt P00888: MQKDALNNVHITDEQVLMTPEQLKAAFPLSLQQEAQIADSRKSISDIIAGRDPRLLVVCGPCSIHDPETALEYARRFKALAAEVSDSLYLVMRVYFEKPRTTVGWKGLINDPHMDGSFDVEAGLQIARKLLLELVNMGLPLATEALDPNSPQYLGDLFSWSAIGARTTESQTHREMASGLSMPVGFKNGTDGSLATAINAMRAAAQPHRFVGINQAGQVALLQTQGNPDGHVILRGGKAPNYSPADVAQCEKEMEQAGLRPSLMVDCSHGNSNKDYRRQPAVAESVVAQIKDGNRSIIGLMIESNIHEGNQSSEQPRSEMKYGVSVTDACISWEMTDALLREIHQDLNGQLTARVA
UniProt P02925: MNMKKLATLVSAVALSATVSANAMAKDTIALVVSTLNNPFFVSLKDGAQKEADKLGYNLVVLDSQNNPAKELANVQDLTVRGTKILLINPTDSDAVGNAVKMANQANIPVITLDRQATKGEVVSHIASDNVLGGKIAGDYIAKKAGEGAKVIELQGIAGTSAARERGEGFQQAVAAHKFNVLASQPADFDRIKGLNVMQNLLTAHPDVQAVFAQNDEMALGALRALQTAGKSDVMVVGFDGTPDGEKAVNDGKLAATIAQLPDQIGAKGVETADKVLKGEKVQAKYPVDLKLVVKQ
UniProt P00550: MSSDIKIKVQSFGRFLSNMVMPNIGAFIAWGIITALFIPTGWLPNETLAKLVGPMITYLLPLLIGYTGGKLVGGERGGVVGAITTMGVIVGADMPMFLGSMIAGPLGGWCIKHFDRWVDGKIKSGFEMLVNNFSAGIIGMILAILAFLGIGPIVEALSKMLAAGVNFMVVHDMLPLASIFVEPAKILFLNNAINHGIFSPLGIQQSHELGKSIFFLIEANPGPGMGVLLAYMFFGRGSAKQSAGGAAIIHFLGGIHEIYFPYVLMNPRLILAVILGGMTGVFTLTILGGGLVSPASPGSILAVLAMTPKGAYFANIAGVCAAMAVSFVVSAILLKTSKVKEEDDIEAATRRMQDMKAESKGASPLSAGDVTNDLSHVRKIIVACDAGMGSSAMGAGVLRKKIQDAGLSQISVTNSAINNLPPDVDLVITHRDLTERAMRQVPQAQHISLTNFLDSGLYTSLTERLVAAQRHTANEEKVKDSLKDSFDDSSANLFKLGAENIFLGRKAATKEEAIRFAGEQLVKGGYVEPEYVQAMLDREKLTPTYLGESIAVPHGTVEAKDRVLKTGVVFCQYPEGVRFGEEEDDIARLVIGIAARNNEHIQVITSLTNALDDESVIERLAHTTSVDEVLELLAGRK
UniProt P04816: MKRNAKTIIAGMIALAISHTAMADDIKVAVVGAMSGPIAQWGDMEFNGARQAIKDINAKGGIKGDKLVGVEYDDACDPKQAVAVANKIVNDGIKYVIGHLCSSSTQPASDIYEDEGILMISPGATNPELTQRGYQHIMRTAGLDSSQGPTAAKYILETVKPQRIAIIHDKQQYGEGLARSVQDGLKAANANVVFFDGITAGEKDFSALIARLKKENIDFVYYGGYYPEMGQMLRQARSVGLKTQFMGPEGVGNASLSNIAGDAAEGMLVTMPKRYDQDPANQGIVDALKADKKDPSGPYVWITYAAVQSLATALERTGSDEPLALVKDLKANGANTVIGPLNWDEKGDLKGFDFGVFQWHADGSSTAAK
UniProt P06989: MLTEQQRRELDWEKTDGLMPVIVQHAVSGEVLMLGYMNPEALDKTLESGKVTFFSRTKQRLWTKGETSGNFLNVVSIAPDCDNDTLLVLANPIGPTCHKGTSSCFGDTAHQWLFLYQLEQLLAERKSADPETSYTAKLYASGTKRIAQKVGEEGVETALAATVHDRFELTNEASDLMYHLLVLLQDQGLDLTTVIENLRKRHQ
UniProt P00895: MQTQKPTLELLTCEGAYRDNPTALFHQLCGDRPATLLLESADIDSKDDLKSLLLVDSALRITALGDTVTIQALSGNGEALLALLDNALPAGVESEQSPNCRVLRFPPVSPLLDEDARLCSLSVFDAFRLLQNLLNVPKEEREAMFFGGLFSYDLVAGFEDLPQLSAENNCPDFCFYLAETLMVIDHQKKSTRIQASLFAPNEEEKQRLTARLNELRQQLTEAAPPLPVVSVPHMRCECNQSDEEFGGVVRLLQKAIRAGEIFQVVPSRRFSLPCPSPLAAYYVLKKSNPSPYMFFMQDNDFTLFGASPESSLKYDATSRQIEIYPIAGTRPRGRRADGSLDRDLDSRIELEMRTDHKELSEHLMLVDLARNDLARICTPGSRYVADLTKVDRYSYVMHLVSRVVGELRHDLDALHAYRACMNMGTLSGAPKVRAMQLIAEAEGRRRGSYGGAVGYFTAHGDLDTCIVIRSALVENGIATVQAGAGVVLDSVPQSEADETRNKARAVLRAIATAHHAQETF
UniProt P06974: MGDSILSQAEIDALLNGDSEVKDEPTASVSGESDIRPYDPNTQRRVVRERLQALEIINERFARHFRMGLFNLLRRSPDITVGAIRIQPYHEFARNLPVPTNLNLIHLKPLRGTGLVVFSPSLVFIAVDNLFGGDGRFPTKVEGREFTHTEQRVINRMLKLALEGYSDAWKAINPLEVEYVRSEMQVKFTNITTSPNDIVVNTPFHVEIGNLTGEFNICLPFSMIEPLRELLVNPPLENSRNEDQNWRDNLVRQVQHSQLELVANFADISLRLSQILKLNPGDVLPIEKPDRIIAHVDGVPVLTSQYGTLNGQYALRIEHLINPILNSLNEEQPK
UniProt P05055: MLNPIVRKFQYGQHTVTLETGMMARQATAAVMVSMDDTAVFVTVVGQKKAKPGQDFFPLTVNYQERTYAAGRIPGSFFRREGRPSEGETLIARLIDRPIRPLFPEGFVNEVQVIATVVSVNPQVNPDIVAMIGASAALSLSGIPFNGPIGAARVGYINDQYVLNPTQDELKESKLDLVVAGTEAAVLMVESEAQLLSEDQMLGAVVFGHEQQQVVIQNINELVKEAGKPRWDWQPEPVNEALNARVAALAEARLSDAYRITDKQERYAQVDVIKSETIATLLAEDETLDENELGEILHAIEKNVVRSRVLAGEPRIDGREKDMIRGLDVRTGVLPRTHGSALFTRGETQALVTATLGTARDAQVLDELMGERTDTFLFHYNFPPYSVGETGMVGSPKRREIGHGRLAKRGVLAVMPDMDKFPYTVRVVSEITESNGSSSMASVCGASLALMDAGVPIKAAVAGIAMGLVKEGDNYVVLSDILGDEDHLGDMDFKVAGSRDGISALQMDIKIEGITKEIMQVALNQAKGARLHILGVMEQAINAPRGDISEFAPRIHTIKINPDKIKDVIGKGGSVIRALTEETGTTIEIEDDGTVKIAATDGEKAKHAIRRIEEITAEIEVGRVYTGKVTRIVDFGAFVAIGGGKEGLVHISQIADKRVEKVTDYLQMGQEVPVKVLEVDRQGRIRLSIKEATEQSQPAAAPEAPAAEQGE
UniProt P07363, whole entry: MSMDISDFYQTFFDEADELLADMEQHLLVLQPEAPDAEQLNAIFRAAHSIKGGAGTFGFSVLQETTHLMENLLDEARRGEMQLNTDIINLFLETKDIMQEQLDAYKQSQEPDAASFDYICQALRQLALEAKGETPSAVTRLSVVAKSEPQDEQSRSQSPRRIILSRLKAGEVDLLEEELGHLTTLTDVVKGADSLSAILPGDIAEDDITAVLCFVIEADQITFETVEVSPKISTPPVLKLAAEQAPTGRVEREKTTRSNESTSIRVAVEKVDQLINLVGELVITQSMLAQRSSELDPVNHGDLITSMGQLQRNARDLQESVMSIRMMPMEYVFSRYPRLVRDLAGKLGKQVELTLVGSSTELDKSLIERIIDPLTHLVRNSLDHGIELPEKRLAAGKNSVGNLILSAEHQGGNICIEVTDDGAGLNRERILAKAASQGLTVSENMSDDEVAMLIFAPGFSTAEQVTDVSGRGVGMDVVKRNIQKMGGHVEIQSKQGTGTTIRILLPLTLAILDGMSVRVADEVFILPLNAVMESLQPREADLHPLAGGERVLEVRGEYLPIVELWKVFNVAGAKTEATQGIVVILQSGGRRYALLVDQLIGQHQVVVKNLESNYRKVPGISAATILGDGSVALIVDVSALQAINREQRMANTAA
UniProt P09835: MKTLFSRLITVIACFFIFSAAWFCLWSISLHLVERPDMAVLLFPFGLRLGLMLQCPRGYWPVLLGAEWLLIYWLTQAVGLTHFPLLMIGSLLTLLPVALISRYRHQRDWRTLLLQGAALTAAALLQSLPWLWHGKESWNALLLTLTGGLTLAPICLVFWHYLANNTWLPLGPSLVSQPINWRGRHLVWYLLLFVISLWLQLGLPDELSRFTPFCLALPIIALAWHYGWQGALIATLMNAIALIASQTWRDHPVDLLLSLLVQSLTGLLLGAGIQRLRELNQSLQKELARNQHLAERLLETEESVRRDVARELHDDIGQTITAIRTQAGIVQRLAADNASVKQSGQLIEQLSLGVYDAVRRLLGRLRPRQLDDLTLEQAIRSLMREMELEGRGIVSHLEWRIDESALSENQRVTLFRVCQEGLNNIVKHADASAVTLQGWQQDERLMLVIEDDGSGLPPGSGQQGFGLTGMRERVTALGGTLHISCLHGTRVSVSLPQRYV

Compound: CC1(C)S[C@@H]2[C@H](NC(=O)[C@H](N)c3ccccc3)C(=O)N2[C@H]1C(=O)O [ampicillin]
Assay: log2 fold change of tryptic peptide abundance, ligand vs vehicle (limited proteolysis) (log2 ratio); higher = more trypsin-susceptible (destabilized)
Settings: ligand concentration: 10 uM; sample: E. coli crude lysate

| Target | log2 fold change |
| --- | --- |
| UniProt P03813 (peptide sequence: YTMEQDFYR, peptide start residue: 127) | -0.243 |
| UniProt P06149 (peptide sequence: HAHDYDYVHR, peptide start residue: 222) | 0.44 |
| UniProt P00894 (peptide sequence: IQASGYGRDEVK, peptide start residue: 91) | 0.424 |
| UniProt P06715 (peptide sequence: LVCVGSEEK, peptide start residue: 393) | 0.72 |
| UniProt P00805 (peptide sequence: KHTSDTPFDVSKLNELPK, peptide start residue: 218) | -0.184 |
| UniProt P05824 (peptide sequence: ETDGAMTETHMQSLNKK, peptide start residue: 508) | -0.354 |
| UniProt P06999 (peptide sequence: ELSALVNR, peptide start residue: 190) | -0.125 |
| UniProt P00909 (peptide sequence: NHDIADVVDKAK, peptide start residue: 314) | 0.355 |
| UniProt P05719 (peptide sequence: EQAINYLK, peptide start residue: 30) | -0.604 |
| UniProt P08956 (peptide sequence: TKSGIWYRDVR, peptide start residue: 391) | -0.707 |
| UniProt P00760 (peptide sequence: SSGTSYPDVLKCLKAPILSDSSCK, peptide start residue: 149) | -2.67 |
| UniProt P06615 (peptide sequence: TGRTEKAR, peptide start residue: 161) | -0.235 |
| UniProt P06129 (peptide sequence: WQSTSVNDVLR, peptide start residue: 57) | 0.206 |
| UniProt P00888 (peptide sequence: SISDIIAGRDPR, peptide start residue: 43) | -0.131 |
| UniProt P02925 (peptide sequence: ERGEGFQQAVAAHK, peptide start residue: 165) | -0.156 |
| UniProt P00550 (peptide sequence: DSLKDSFDDSSANLFK, peptide start residue: 480) | 0.267 |
| UniProt P04816 (peptide sequence: TAGLDSSQGPTAAK, peptide start residue: 140) | -0.0696 |
| UniProt P06721 (peptide sequence: YTLGAVNSVIQR, peptide start residue: 19) | 0.152 |
| UniProt P06989 (peptide sequence: LYASGTKR, peptide start residue: 138) | -0.123 |
| UniProt P00895 (peptide sequence: IQASLFAPNEEEKQR, peptide start residue: 193) | -0.588 |
| UniProt P06974 (peptide sequence: EFTHTEQR, peptide start residue: 145) | -0.632 |
| UniProt P05055 (peptide sequence: RGVLAVMPDMDKFPYTVR, peptide start residue: 409) | -0.559 |
| UniProt P07363 (peptide sequence: GVGMDVVKR, peptide start residue: 472) | 0.216 |
| UniProt P09835 (peptide sequence: ELHDDIGQTITAIR, peptide start residue: 311) | 0.164 |

Given as tab-separated lines: entries from further up.
Target	log2 fold change
UniProt P06974 (peptide sequence: EFTHTEQR, peptide start residue: 145)	-0.632
UniProt P05055 (peptide sequence: RGVLAVMPDMDKFPYTVR, peptide start residue: 409)	-0.559
UniProt P07363 (peptide sequence: GVGMDVVKR, peptide start residue: 472)	0.216
UniProt P09835 (peptide sequence: ELHDDIGQTITAIR, peptide start residue: 311)	0.164
